For three substances, binding results are on record in article PMC10797690, “The SIRT3-ATAD3A axis regulates MAM dynamics and mitochondrial calcium homeostasis in cardiac hypertrophy” (International Journal of Biological Sciences, 2024).

Changes are numbered by the printed parent chain. Results are given in words; binding and its absence hold for the method and conditions named. In cells and extracts the contact can be indirect. Binding calls can cover weak binding; strength is not graded here. For part of these data: Tags and fused reporters may be left off the sequences shown.

In assay [1] the target is T1, ATAD3A fusion for bimolecular fluorescence complementation (UniProt Q3KRE0).
T1 sequence: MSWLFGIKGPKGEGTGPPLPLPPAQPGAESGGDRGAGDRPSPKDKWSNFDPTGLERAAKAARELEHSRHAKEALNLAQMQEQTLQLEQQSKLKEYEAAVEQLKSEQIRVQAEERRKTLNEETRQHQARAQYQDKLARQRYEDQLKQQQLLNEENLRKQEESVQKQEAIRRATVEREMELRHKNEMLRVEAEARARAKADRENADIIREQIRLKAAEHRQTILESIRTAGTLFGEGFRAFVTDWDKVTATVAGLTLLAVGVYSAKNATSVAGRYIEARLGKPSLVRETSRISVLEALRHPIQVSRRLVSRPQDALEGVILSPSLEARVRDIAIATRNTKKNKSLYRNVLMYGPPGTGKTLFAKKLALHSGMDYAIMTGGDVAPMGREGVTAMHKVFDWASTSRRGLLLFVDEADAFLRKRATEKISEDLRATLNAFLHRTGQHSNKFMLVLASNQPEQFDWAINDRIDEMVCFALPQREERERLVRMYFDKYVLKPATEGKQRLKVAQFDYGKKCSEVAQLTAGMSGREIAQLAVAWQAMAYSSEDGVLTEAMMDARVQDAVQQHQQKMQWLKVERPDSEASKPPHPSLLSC
The assay is described as follows: split reporter; bimolecular fluorescence complementation in NRCMs.

Assay [2] addresses T2, ATAD3A, endogenous in mouse heart (mouse (endogenous in mouse heart)) (UniProt Q925I1).
T2 sequence: T1 sequence with S30G, N75S, N119T, F232L, N444S, A522E, E579Q, A580T, S581N
The experiment in a line: co-IP; endogenous proteins in mouse heart tissue lysate.

The target in assay [3] is T3, EGFP-ATAD3A (UniProt Q3KRE0).
T3 sequence: T1 sequence
The assay is described as follows: FRET or BRET; FRET by acceptor photobleaching in NRCMs transfected with EGFP-ATAD3A and mCherry-SIRT3; 750 nm two-photon laser. On the technique in general: BRET reads energy transfer from a luciferase to a nearby fluorophore.

For “SIRT3 fusion for bimolecular fluorescence complementation (enzyme)”, the binding result in assay [1] is given as “binds”.

Consider “SIRT3, endogenous in mouse heart (enzyme)”, for which, in assay [2], the binding entry is recorded as “binds”.

For mCherry-SIRT3 (enzyme), the binding result in assay [3] is reported as “binds”.
